According to PMC3195428:
Where a chain is given by its changes, count along the chain named. Names and notes keep the numbering of the source. No constants are given. Whether binding was seen depends on the method and setting. Binding seen in cells or lysates may run through a third protein. Some results given as binding are weak or reduced against the parent protein; the word gives no strength. Sequences can lack the tags named with a protein.

B1: rat nephrin Y1152F (protein, UniProt Q9R044 37-1252)
chain: ESPVPTSAPRGFWALSENLTAVEGTTVKLWCGVRAPGSVVQWAKDGLLLGPNPKMPGFPRYSLEGDRAKGEFHLLIEACDLSDDAEYECQVGRSELGPELVSPKVILSILVSPKVLLLTPEAGSTVTWVAGQEYVVTCVSGDAKPAPDITFIQSGRTILDVSSNVNEGSEEKLCITEAEARVIPQSSDNGQLLVCEGSNPALDTPIKASFTMNILFPPGPPVIDWPGLNEGHVRAGENLELPCTARGGNPPATLQWLKNGKPVSTAWGTEHAQAVAHSVLVMTVRPEDHGARLSCQSYNSVSAGTQERSITLQVTFPPSAITILGSVSQSENKNVTLCCLTKSSRPRVLLRWWLGGRQLLPTDETVMDGLHGGHISMSNLTFLVRREDNGLPLTCEAFSDAFSKETFKKSLTLNVKYPAQKLWIEGPPEGQYIRTGTRVRLVCLAIGGNPDPSLIWFKDSRPVSEPRQPQEPRRVQLGSVEKSGSTFSRELVLIIGPPDNRAKFSCKAGQLSASTQLVVQFPPTNLTILANSSALRPGDALNLTCVSISSNPPVNLSWDKEGERLEDVAAKPQSAPFKGSAASRSVFLRVSSRDHGQRVTCRAHSEALRETVSSFYRFNVLYPPEFLGEQVRAVTVVEQGQVLLPVSVSANPAPEAFNWTFRGYRLSPAGGPRHRILSGGALQLWNVTRADDGFYQLHCQNSEGTAEALLKLDVHYAPTIRALRDPTEVNVGGSVDIVCTVDANPILPEMFSWERLGEEEEDLNLDDMEKVSKGSTGRLRIRQAKLSQAGAYQCIVDNGVAPAARGLVRLVVRFAPQVDQPTPLTKVAAAGDSTSSATLHCRARGVPNIDFTWTKNGVPLDLQDPRYTEHRYHQGVVHSSLLTIANVSAAQDYALFKCTATNALGSDHTNIQLVSISRPDPPLGLKVVSISPHSVGLEWKPGFDGGLPQRFQIRYEALETPGFLHVDVLPTQATTFTLTGLKPSTRYRIWLLASNALGDSGLTDKGIQVSVTTPGPDQAPEDTDHQLPTELPPGPPRLPLLPVLFAVGGLLLLSNASCVGGLLWRRRLRRLAEEISEKTEAGSEDRIRNEYEESQWTGDRDTRSSTVSTAEVDPNFYSMRDFSPQLPPTLEEVLYHQGAEGEDMAFPGHLHDEVERAYGPPGAWGPLYDEVRMDPYDLRWPEVQCEDPRGIYDQVAADMDAVEASSLPFELRGHLV
B2: rat nephrin Y1204/1228F (protein, UniProt Q9R044 37-1252)
chain: B1 chain with F1116Y, Y1168F, Y1192F

Biological target: T1, GST-PTP1B-DA (D181A substrate-trapping mutant of PTP1B, GST-tagged) (UniProt P18031)
T1 sequence: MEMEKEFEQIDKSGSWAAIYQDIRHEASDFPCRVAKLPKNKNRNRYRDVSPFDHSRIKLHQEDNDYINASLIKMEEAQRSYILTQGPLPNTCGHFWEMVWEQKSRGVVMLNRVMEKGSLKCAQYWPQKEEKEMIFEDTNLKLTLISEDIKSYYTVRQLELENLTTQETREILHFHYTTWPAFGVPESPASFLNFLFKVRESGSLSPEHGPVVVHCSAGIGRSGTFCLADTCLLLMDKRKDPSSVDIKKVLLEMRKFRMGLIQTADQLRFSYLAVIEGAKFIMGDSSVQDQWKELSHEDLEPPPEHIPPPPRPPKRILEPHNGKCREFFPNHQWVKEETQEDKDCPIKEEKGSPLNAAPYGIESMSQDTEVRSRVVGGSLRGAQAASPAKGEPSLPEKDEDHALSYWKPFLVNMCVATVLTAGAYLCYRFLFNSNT
Test: pull-down; Cos-1 cells co-transfected with GST-tagged PTP (pEBG) and nephrin or fyn; lysate (250 ug protein; 25 mM HEPES pH 7.5, 1% Triton X-100, 10 mM MgCl2, 100 mM NaCl, 5% glycerol) incubated 2 h at 4 C with glutathione-sepharose beads; immunoblotting

Binder	binding
B1	binds
B2	no binding
